The source of these data is patent publication US9422248B2 (University of Iowa Research Foundation, priority 2012, dated 2016).

The subject of the series is 6 Hz (32 mA) model. Put plainly: 6 Hz (32 mA) psychomotor seizure model of partial epilepsy. The class given is in vivo, mouse. The following applies: for PI (protective index, TD50/ED50): 6 Hz (32 mA) ED50, rotorod TD50; for Time to peak effect: 6 Hz (32 mA), ip. From the text: All compounds (FIG. 1) were screened in three whole mouse models: the maximal electroshock model (MES), the scMET test (pentylenetetrazole, Metrazol), and the 6 Hz psychomotor seizure model of partial epilepsy (32 mA). Adult male CF No 1 albino mice (26-30 g) were used for the 6 Hz test and 18-25 g mice were used in the MES and scMet tests. The animals are housed, fed, and handled in a manner consistent with the recommendations in the National Council Publication, “Guide for the Care and Use of Laboratory Animals”. The animal studies were performed by the NINDS Anticonvulsant Screening Program under IACUC number 09-12014. All compounds were administered ip in polyethylene glycol, 30%.
The 6 Hz test (also known as the minimal clonic seizure, or psychomotor test) involved delivering a corneal stimulus of 32 mA for 3 s. This current elicits psychomotor seizures in 97% of untreated animals. Seizures consist of a minimal clonic phase followed by stereotyped automatistic behaviors. Animals not showing such behaviors were considered protected. Toxicity was determined by the rotorod test. For this test, the animal is placed on a rotorod at 6 rpm following dosing. The animal is considered toxic if it falls off the rotorod three times in a 1 min period. The ED50, TD50 and confidence intervals were determined by probit analysis.
A general note: In the rotarod test animals must keep their balance on a rotating rod.

SMILES strings stand for the structures.

For `CC(C)c1cc(C(O)C(F)(F)F)ccc1O` (centres unmarked) [RM125, 2-iso-Propyl-4-(2,2,2-trifluoro-1-hydroxy-ethyl)-phenol], the “PI (protective index, TD50/ED50)” value was found to be 1.9 and the “Time to peak effect” value is given as 0.25 h.

On to `CC(C)c1cc(C(O)C(F)(F)F)cc(Br)c1O` (centres unmarked) [RM122, 2-Bromo-6-isopropyl-4-(2,2,2-trifluoro-1-hydroxy-ethyl)-phenol], for which the “PI (protective index, TD50/ED50)” value was 3.6 and the “Time to peak effect” value amounted to 0.5 h.

In the case of `CCC(C)c1cc(C(O)C(F)(F)F)cc(Br)c1O` (centres unmarked) [RM129, 2-Bromo-6-sec-Butyl-4-(2,2,2-trifluoro-1-hydroxy-ethyl)-phenol], the “PI (protective index, TD50/ED50)” value is 1.7 and the “Time to peak effect” value was found to be 0.5 h.

For the molecule `CCC(C)c1cc(C(O)C(F)(F)F)ccc1O` (centres unmarked) [RM131, 2-sec-Butyl-4-(2,2,2-trifluoro-1-hydroxy-ethyl)-phenol], the “PI (protective index, TD50/ED50)” value was determined as 1.6 and the “Time to peak effect” value was 0.5 h.
